# Assay results: the supplement of paper PMC9135407
# Where “and” joins values, the source holds several entries; their conditions need not be identical. Identical values can stand only once. Counter-ions that a name gives are not always drawn. ± gives the standard deviation of the averaged measurements. The list shows a part of the results. Plates or batches differ in their baseline, so values are only roughly comparable.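 Culture-activated primary human stellate myofibroblasts, where regained lipid droplets signal inactivation. Value: share of Hoechst-counted cells above a per-plate Bodipy cutoff, in duplicate wells, with DMSO negative and nortriptyline positive controls on each plate. Hits: a control-normalized score above the plate's top-tenth-percentile nortriptyline wells, or one of a plate's three best wells. Final well concentrations are not given.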
# Tested on: primary human hepatic stellate cells (donor 1)
# Experiment: percent Bodipy-positive cells; higher = more lipid droplet accumulation
# Settings: 48 h
# Method: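 Primary lipid accumulation screen in primary human hepatic stellate cell myofibroblasts (donor 1, passage 8) in 384-well plates. 100 nL of library compound was pin-transferred into 30 µL medium in duplicate, and cells were treated for 48 h. The 'Scaled' score combines distance from plate baseline, toxicity and reproducibility penalties, and is normalised to nortriptyline (positive) and DMSO (negative) controls on each plate. A hit is defined as scaled >0.85 or among the top 3 wells per plate.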
# [1] = library stock concentration: 10 mM
# [2] = library stock concentration: 400 uM
# [3] = library stock concentration: 3.33 mM
# [4] = library stock concentration: 1 mM
smiles,measurement,setting,value
O=C1CCCN1CC#CCN1CCCC1 [Oxotremorine sesquifumarate salt],percent Bodipy-positive cells,[1],27.4 ± 4.5%
O=C1CCCN1CC#CCN1CCCC1 [Oxotremorine sesquifumarate],percent Bodipy-positive cells,library stock concentration: 9.7 mM,9.39 ± 1.2%
O[C@@H]1CCCC[C@H]1N1CCC(c2ccccc2)CC1 [L(-)-vesamicol hydrochloride],percent Bodipy-positive cells,,8.37 ± 3%
Cc1sc2c(c1C)C(c1ccc(Cl)cc1)=N[C@H](CC(=O)OC(C)(C)C)c1nnc(C)n1-2,percent Bodipy-positive cells,library stock concentration: 80 uM,30.9 ± 1.2%
same,percent Bodipy-positive cells,[2],31.1 ± 2.4%
same,percent Bodipy-positive cells,library stock concentration: 2 mM,29.8 ± 5.4%
same,percent Bodipy-positive cells,[1],41.5 ± 5.3%
C[C@]12CC[C@H]3[C@@H](CC[C@@]45O[C@@H]4C(O)=C(C#N)C[C@]35C)[C@@H]1CC[C@@H]2O,percent Bodipy-positive cells,[1],30.1 ± 2%
C[C@]12CC[C@H]3[C@@H](CC[C@@]45O[C@@H]4C(O)=C(C#N)C[C@]35C)[C@@H]1CC[C@@H]2O [Trilostane],percent Bodipy-positive cells,[3],15.4 ± 1.6%
same,percent Bodipy-positive cells,[1],22.1 ± 0.45%
O=C(N/N=C/c1ccc([N+](=O)[O-])o1)c1cc([N+](=O)[O-])cc([N+](=O)[O-])c1O,percent Bodipy-positive cells,[1],27.6 ± 11%
"NC(Cn1oc(=O)[nH]c1=O)C(=O)O (single isomer, unassigned; (+)) [(+)-Quisqualic acid]",percent Bodipy-positive cells,[1],12.5 ± 5%
CCCC[C@H]1C(=O)O[C@H](C)[C@H](NC(=O)c2cccc(NC=O)c2OC)C(=O)O[C@@H](C)[C@@H]1OC(=O)CC(C)C [2-methoxyantimycin A3],percent Bodipy-positive cells,library stock concentration: 9.4 mM,89.5 ± 7.8%
C[C@H]1O[C@@H](O[C@@H]2C[C@H](O)[C@]3(CO)[C@H]4[C@H](O)C[C@]5(C)[C@H](C6=CC(=O)OC6)CC[C@]5(O)[C@@H]4CC[C@]3(O)C2)[C@@H](O)[C@H](O)[C@H]1O.O.O.O.O.O.O.O.O [Ouabain],percent Bodipy-positive cells,[3],76.8 ± 2.4%
same,percent Bodipy-positive cells,[1],94.2 ± 3.2%
NNC(=O)c1ccc(O)cc1 [4-Hydroxybenzhydrazide],percent Bodipy-positive cells,[1],26.5 ± 15%
O=C1CSC(c2ccccc2Cl)c2cc(Cl)ccc2N1 (stereo not given),percent Bodipy-positive cells,[1],7.79 ± 2.8%
same,percent Bodipy-positive cells,library stock concentration: 15.4 mM,25.3 ± 1.8%
CCCOc1ccc2[nH]cc(C3=CCNCC3)c2n1,percent Bodipy-positive cells,[1],46.1 ± 1.4%
COc1ccc(Cc2nccc3cc(OC)c(OC)cc23)cc1OC [Papaverine hydrochloride],percent Bodipy-positive cells,,30.1 ± 6.4%
same,percent Bodipy-positive cells,library stock concentration: 5.3 mM,4.57 ± 1.3%
same,percent Bodipy-positive cells,[1],21.2% and 40.2%
CCCCC/C=C\C/C=C\C/C=C\C/C=C\CCCC(=O)NC[C@@H](C)O [R-2 Methanandamide],percent Bodipy-positive cells,[4],12.2 ± 8.3%
CNC1=Nc2ccc(Cl)cc2C(c2ccccc2)=[N+]([O-])C1,percent Bodipy-positive cells,[1],17.2 ± 4%
C[C@@H]1NCCc2cc(O)c(O)cc21 [Salsolinol hydrobromide],percent Bodipy-positive cells,,35.3 ± 12%
CCC1(CC)C(=O)C=CNC1=O [Pyrithyldione],percent Bodipy-positive cells,,9.78 ± 3.6%
same,percent Bodipy-positive cells,[1],41.6 ± 1.4%
NCCCP(=O)(O)O [3-Aminopropylphosphonic acid],percent Bodipy-positive cells,[1],37.1 ± 6.2%
CNCCc1c[nH]c2ccc(O)cc12 [N-omega-Methyl-5-hydroxytryptamine oxalate salt],percent Bodipy-positive cells,[1],34.8 ± 8.1%
Cc1c(N)nc(C(CC(N)=O)NCC(N)C(N)=O)nc1C(=O)NC(C(=O)NC(C)C(O)C(C)C(=O)NC(C(=O)NCCc1nc(-c2nc(C(=O)NCCC[S+](C)C)cs2)cs1)C(C)O)C(O[C@@H]1O[C@@H](CO)[C@@H](O)[C@H](O)[C@@H]1O[C@H]1O[C@H](CO)[C@@H](O)[C@H](OC(N)=O)[C@@H]1O)c1cnc[nH]1 (stereo not given in full) [Bleomycin Sulfate],percent Bodipy-positive cells,[3],11.7 ± 2%
same,percent Bodipy-positive cells,[1],24.8 ± 11%
CCCCC/C=C\C/C=C\C/C=C\C/C=C\CCCC(=O)NC(CO)CO [Arachidonoyl Serinol],percent Bodipy-positive cells,[4],14.5 ± 1.4%
Cc1n[nH]c2ccc(-c3cncc(OC[C@@H](N)Cc4c[nH]c5ccccc45)c3)cc12,percent Bodipy-positive cells,[2],98 ± 1.1%
CC(C)(c1ccc(OCC2CO2)cc1)c1ccc(OCC2CO2)cc1 (stereo not given),percent Bodipy-positive cells,[4],11.9 ± 5.7%
same,percent Bodipy-positive cells,[1],10 ± 2.3%
same,percent Bodipy-positive cells,library stock concentration: 14.7 mM,17.7 ± 3.9%
CN1C2CC(O)CC1C1OC12 (stereo not given) [Scopine],percent Bodipy-positive cells,[3],5.61 ± 0.073%
same,percent Bodipy-positive cells,[1],15.8 ± 4%
CC(C)N(CCNC(=O)CN1CCCC1=O)C(C)C [Pramiracetam],percent Bodipy-positive cells,[3],5.71 ± 2%
same,percent Bodipy-positive cells,[1],9.47 ± 2.1%
O=C[C@H](Cl)[C@@H](O)[C@H](O)[C@H](O)CO [2-Chloro-2-deoxy-D-glucose],percent Bodipy-positive cells,[1],49.3 ± 14%
NNC(N)=O [Semicarbazide hydrochloride],percent Bodipy-positive cells,[1],18.6 ± 4.1%
CNCC(=O)c1ccc(O)c(O)c1,percent Bodipy-positive cells,[1],30.5 ± 1.7%
CNCC(=O)c1ccc(O)c(O)c1 [Adrenalone HCl],percent Bodipy-positive cells,[3],11.9 ± 2.2%
same,percent Bodipy-positive cells,[1],36.4 ± 5.8%
Cc1cc2c(C(C)C)c(O)c(O)c(C=O)c2c(O)c1-c1c(C)cc2c(C(C)C)c(O)c(O)c(C=O)c2c1O,percent Bodipy-positive cells,[1],77.4 ± 2%
O=C(NC(=O)c1c(F)cccc1F)Nc1cc(Cl)c(OC(F)(F)C(F)C(F)(F)F)cc1Cl (stereo not given),percent Bodipy-positive cells,[1],74.94 ± 0.18%
COC(=O)C1=CCCN(C)C1 [Arecoline hydrobromide],percent Bodipy-positive cells,,18.1 ± 4.7%
same,percent Bodipy-positive cells,[1],20% and 30.5%
COC(=O)C1=CCCN(C)C1 [Arecoline],percent Bodipy-positive cells,[3],29.5 ± 32%
same,percent Bodipy-positive cells,[1],19.4 ± 0.27%
C=C(C)[C@H]1Cc2c(ccc3c2O[C@@H]2COc4cc(OC)c(OC)cc4[C@@H]2C3=O)O1 [Rotenone],percent Bodipy-positive cells,[1],35.6 ± 2.9%
CC(CN)CC(=O)O (stereo not given) [3-Methyl-GABA],percent Bodipy-positive cells,[1],9.29 ± 0.97%
COc1cc2c(cc1OC)[C@@]13CCN4CC5=CCO[C@H]6CC(=O)N2[C@H]1[C@H]6[C@H]5C[C@H]43 [Brucine],percent Bodipy-positive cells,library stock concentration: 5.1 mM,11.2 ± 2%
same,percent Bodipy-positive cells,[1],20.8% and 20.7%
Fc1ccc(C(OCCN2CCN(CCCc3ccccc3)CC2)c2ccc(F)cc2)cc1,percent Bodipy-positive cells,[1],100%
CC(C)(C)NCC(O)c1cc(Cl)c(N)c(Cl)c1 (stereo not given) [Clenbuterol hydrochloride],percent Bodipy-positive cells,,35 ± 9.8%
CC(C)(C)NCC(O)c1cc(Cl)c(N)c(Cl)c1 (stereo not given) [Clenbuterol],percent Bodipy-positive cells,library stock concentration: 7.2 mM,15.5 ± 3.5%
CS(=O)(=O)O.Oc1ccc2c3c1O[C@H]1c4oc5ccccc5c4C[C@@]4(O)C(C2)N(CC2CC2)CCC314 (stereo not given in full) [Naltriben methanesulfonate],percent Bodipy-positive cells,[1],96.9 ± 2.5%
CNC(C)C(O)c1ccccc1 (stereo not given) [Racephedrine hydrochloride],percent Bodipy-positive cells,library stock concentration: 9.9 mM,14.4 ± 1.7%
same,percent Bodipy-positive cells,[1],7.46 ± 0.77%
O=C1Nc2cc(Cl)c(Cl)cc2N2CCNCC12 (stereo not given),percent Bodipy-positive cells,[1],36.6 ± 7%
CC[C@H]1CN2CCc3cc(OC)c(OC)cc3[C@@H]2C[C@@H]1C[C@H]1NCCc2cc(OC)c(OC)cc21 [Emetine dihydrochloride hydrate],percent Bodipy-positive cells,[1],97.65 ± 0.74%
CC[C@H]1CN2CCc3cc(OC)c(OC)cc3[C@@H]2C[C@@H]1C[C@H]1NCCc2cc(OC)c(OC)cc21 [Emetine],percent Bodipy-positive cells,[1],74.7 ± 3.9%
CC(C)(C)NCC(O)COc1cccc2[nH]c(C#N)cc12 (stereo not given) [Cyanopindolol hemifumarate],percent Bodipy-positive cells,[1],11.6 ± 1.8%
